# Assay results reported in patent US20130189218A1, “PHARMACEUTICAL FORMULATIONS FOR FUMAGILLIN DERIVATIVE-PHF CONJUGATES” (Mersana Therapeutics, Inc., priority 2011, published 2013).
# Some results were stated once for a whole list of compounds, not compound by compound.
# Experiment: Particle size by HPSEC with light scattering detector
# Type: physicochemical
# Details: majority fraction
smiles,measurement,value
CO[C@H]1[C@H](C2(C)OC2CC=C(C)C)[C@]2(CC[C@H]1OC(=O)NCc1ccc(NC(=O)CCCC(=O)O)cc1)CO2 (stereo partly shown) [Compound D],Particle Size (Radius),10-20 (majority fraction) nm
